Measurements taken from paper doi:10.1101/2022.07.12.499660.

Target: T1, Spn-E-mKate2 (Spindle-E with mKate2, endogenous knock-in, spn-E^mKate2.KI) (Drosophila (endogenous in ovaries)) (UniProt Q9VF26)
T1 sequence: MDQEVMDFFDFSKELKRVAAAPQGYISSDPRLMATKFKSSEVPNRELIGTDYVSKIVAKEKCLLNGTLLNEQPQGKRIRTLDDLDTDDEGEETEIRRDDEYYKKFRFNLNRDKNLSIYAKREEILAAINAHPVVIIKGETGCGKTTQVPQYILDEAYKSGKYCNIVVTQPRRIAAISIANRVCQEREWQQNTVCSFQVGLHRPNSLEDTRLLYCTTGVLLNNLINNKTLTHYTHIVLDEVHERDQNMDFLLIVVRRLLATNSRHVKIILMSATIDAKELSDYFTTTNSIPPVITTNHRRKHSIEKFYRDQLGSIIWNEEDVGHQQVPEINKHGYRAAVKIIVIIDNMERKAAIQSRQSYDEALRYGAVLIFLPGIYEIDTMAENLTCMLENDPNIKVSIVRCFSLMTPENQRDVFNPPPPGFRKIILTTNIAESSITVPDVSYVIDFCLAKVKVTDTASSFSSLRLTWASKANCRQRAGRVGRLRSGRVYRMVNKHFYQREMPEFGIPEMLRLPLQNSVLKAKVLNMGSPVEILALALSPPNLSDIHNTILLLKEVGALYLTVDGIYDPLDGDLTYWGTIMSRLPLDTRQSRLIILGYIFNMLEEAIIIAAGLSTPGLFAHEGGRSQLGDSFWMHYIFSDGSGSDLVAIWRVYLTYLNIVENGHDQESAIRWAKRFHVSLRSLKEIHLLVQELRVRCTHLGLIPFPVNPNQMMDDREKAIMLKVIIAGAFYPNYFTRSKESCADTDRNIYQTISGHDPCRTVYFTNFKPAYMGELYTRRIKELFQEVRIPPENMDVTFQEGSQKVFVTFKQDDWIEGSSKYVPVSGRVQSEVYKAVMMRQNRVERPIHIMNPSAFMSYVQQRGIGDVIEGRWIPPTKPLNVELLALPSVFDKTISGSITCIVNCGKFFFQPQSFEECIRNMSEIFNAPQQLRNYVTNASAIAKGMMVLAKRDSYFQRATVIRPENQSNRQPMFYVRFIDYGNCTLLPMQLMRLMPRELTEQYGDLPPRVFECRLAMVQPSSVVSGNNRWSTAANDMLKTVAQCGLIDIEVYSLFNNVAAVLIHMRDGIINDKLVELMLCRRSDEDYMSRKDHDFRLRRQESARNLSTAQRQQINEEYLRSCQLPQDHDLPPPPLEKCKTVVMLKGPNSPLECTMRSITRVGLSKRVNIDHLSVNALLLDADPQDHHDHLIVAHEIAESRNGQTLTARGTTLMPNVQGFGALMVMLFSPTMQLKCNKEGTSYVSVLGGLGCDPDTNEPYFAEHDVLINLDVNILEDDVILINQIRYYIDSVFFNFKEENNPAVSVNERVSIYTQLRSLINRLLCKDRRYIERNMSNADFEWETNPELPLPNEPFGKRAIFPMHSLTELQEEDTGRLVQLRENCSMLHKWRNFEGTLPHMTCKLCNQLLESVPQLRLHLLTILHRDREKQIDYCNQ
Test: co-IP

Substance: Tejas (Tej), endogenous (Drosophila (endogenous in ovaries))
- binding: binds

These are yes or no findings as the source states them, for the method shown. In cells and extracts the contact can be indirect. Binding calls can cover weak binding; strength is not graded here.
